The record followed here is publication PMC6609651.

Amino acid sequences for entries named in this document (tags omitted). Residues count along the entry.
UniProt P02769, residues 25-607: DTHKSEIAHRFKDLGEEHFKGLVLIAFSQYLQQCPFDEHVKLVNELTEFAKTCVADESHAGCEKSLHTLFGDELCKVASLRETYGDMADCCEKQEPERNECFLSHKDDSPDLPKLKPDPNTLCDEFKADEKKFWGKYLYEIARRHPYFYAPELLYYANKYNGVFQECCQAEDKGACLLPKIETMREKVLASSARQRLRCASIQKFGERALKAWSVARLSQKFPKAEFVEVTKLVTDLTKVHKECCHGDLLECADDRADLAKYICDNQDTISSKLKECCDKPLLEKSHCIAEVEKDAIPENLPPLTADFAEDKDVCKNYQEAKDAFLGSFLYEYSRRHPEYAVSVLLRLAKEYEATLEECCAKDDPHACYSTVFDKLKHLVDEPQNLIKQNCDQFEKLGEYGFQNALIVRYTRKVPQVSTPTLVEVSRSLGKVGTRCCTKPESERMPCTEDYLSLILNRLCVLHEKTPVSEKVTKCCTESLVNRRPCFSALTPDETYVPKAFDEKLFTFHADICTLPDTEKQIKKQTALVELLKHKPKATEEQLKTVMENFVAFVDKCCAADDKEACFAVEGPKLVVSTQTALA
UniProt Q9UHX3, residues 24-823: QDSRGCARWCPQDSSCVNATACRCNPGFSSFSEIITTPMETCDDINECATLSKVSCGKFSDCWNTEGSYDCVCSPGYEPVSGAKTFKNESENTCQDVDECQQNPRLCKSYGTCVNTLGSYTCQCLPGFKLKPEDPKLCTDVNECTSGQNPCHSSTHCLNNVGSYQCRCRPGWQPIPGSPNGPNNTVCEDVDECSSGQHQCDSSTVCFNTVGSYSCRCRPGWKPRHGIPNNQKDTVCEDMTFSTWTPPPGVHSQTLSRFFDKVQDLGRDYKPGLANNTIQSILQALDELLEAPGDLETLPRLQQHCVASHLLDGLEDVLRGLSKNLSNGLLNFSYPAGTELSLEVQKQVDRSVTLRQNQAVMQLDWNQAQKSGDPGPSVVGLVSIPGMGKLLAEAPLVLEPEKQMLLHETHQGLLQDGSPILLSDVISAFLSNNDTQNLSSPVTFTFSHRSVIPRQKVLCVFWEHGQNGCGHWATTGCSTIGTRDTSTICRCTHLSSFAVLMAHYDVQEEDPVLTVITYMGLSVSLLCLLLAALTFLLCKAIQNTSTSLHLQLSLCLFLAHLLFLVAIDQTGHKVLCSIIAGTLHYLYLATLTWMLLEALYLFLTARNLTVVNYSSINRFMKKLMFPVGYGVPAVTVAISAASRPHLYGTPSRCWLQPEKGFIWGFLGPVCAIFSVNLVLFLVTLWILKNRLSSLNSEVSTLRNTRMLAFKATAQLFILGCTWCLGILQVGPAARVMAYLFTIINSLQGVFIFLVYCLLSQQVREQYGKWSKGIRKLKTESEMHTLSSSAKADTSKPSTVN
UniProt Q03591, residues 19-330: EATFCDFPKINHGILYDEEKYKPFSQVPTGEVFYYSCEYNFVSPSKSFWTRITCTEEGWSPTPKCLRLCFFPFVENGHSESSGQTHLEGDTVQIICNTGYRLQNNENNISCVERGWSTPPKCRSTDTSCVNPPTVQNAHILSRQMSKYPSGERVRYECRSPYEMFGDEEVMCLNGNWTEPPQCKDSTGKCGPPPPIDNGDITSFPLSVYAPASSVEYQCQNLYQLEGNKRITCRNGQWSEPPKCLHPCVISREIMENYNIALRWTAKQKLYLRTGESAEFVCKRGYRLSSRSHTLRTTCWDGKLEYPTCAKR

In experiment [1] the target is BSA (bovine (from the name BSA)) (UniProt P02769). Description: ELISA; BSA (5 µg mL^-1) coated 1 h at 37 °C, blocked; FHR1 30 µg mL^-1 2 h at RT; polyclonal FHR1 antiserum; both purified. On the technique in general: ELISA stands for enzyme-linked immunosorbent assay.
The target of experiment [2] is T1, TGFβRI (human (endogenous in whole blood cells and patient tissue)) (UniProt P36897).
T1 sequence: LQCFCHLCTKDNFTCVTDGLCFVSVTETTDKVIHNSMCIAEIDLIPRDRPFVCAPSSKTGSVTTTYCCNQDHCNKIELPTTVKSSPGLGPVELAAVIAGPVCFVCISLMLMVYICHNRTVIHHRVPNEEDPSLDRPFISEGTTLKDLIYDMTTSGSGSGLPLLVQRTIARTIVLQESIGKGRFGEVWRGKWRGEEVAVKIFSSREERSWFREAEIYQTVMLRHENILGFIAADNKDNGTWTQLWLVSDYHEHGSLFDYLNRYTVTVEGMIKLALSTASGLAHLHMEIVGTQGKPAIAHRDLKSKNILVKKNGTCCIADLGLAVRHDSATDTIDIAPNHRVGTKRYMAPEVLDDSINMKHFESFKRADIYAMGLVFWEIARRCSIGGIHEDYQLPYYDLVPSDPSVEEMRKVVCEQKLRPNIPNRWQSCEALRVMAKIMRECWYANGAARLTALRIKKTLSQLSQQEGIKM
The experiment is described as follows: proximity ligation; ex vivo whole blood model: adherent whole blood cells with heat-necrotic cells preincubated in NHS of the same donor, 10% NHS, 1.5 h; fixed, permeabilised; monoclonal mouse FHR1 antibody with rabbit anti-EMR2 antiserum or TGFβRI antibody; FHR1 sufficient and ΔFHR1/3 donors.

The target of experiment [3] is EMR2 receptor on monocytes and in patient tissue (human (endogenous in blood monocytes and patient tissue)) (UniProt Q9UHX3). Described as above.
The target in experiment [4] is T1, TGFβRI (human (endogenous in whole blood cells and patient tissue)). Description: proximity ligation; paraffin sections of AAV kidney biopsies and human atherosclerotic plaques; monoclonal mouse anti-FHR1 with rabbit anti-EMR2 antiserum or TGFβRI antibody.
In experiment [5] the target is EMR2 receptor on monocytes and in patient tissue (human (endogenous in blood monocytes and patient tissue)) (UniProt Q9UHX3). The experiment is described as above.

Results are given in words; binding and its absence hold for the method and conditions named. For some assays here: Binding seen in cells or lysates may run through a third protein. Some entries that bind do so weakly or less than the wild type.

For the substance “Recombinant factor H-related protein FHR1 (from UniProt Q03591 19-330)”, the binding entry in experiment [1] is “no binding (tested: 30 µg mL^-1)”.

“Serum-derived FHR1 (from UniProt Q03591 19-330)”: the binding result in experiment [2] is recorded as “no binding”; in experiment [3] it was “binds”; in experiment [4], “no binding”; in experiment [5] it was “binds”.
